We go through 18 compounds from PubChem BioAssay AID493014 (National Center for Advancing Translational Sciences (NCATS), 2011).

The other results are listed elsewhere or left out. These are further read-outs of the screen, such as a control signal, another cell line or another target. No call is given for them. Most of these compounds were active or inconclusive in the main read-out, so they are no random draw. Words in brackets tell the shape of the fitted curve; partial curves, single points and poor fits give uncertain potencies.

The nature of the test: qHTS Assay to Find Inhibitors of Chronic Active B-Cell Receptor Signaling. Particulars: ABC-DLBCL IkBa-CBG/CBR reporter, luminescence ratio (green luciferase fused to IkBa over red control in TMD8 lymphoma cells), 4 h; measured here: CBR red luminescence, cell number. The method, boiled down:
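Doxycycline induced both beetle luciferases in TMD8 lymphoma cells; IKK-driven degradation limits the IkappaBalpha-fused green signal, while red luminescence normalises for cell number and nonspecific effects. Compounds tested up to 46 uM, 4 hrs.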
For orientation: Quantitative high-throughput screening tests each substance at several concentrations.
By AC50 is commonly meant the concentration at which the activity in the assay is half-maximal. Turning to `O=C(N/N=C\C1CC=CCC1)c1ccc(Br)o1` (stereo not drawn), the AC50 was 35.5 µM [falling, single point].
Then `COc1ccc(C(=O)N[C@H](C(=O)Nc2ccc(OC)nc2)C(C)C)cc1`, with 8.2 µM [rising, partial curve, poor fit].
Then `CC1(C)Oc2ccc3ccc(=O)oc3c2/C(=C/NNC(N)=S)C1=O`, with 35.5 µM [falling, single point]; and `CCc1cc(=O)[nH]c(SCC(=O)N2CCC(Cc3ccccc3)CC2)n1`, with 23.1 µM [falling, partial curve].
Take `Cc1nc(NC(=O)c2cc3ccccc3o2)sc1C`: the AC50 is 2.24 µM [falling, full curve, poor fit].
With `CC(=O)Nc1ccc(S(=O)(=O)Oc2cccc(N3C(=O)C4CC=CCC4C3=O)c2)cc1` (stereo not drawn), the AC50 was 14.6 µM [falling, partial curve, poor fit].
Then `CCOc1cc2oc(=O)c3c(c2cc1Cl)CCC3`, with 6.51 µM [rising, single point]; and `COc1ccc(C(=O)Nc2sc(C(=O)N(C)C)c(C)c2C#N)cc1[N+](=O)[O-]`, with 5.17 µM [rising, partial curve]; and `Cc1ccc(S(=O)(=O)N/N=C\c2cccnc2)cc1`, with 11.2 µM [falling, single point].
`C=CCS(=O)(=O)c1nc2ccccc2s1`: the AC50 is 3.16 µM [falling, partial curve, poor fit].
Then `O=C(CCS(=O)(=O)Cc1ccccc1)Nc1nnc(C(F)(F)F)s1`, with 11.2 µM [falling, partial curve]; and `COc1ccc(-c2ccc(SCC(=O)N3CCOCC3)nn2)cc1OC`, with 35.5 µM [falling, single point].
`O=c1cc(CSc2nnnn2-c2ccccc2)[nH]c2[nH]n(-c3ccccc3)c(=O)c12`: the AC50 is 8.2 µM [falling, partial curve].
Then `CC(=O)Nc1ccc(S(=O)(=O)N(C)c2ccc(OCC(=O)Nc3ccccc3C(C)=O)cc2)cc1`, with 23.1 µM [falling, partial curve, poor fit]; and `N#Cc1ccsc1NC(=O)c1ccccn1`, with 11.2 µM [rising, partial curve, poor fit]; and `Cc1cc(C)n(C(=O)c2cccc(S(=O)(=O)N3CCOCC3)c2)n1`, with 0.651 µM [rising, full curve, poor fit].
Then `O=C(COC(=O)c1cc(-c2ccco2)nc2ccccc12)NCc1ccccc1`, with 2.06 µM [falling, partial curve, poor fit]; and `O=C(O)/C=C/C(=O)Nc1ccccc1C(=O)Nc1ccccc1`, with 29.1 µM [falling, single point].
